For some of these results: No signal at the amounts used counts as a negative. For some of these results: A weaker result is weaker than the reference pair of the same experiment. For some of these results: For at least one entry, the source does not settle the construct or the ends of the probe.
Experiments:
Assay in all cases: EMSA
[1] = test system: Sox17HMG/Oct4POU (Mus musculus); conditions: purified recombinant protein; label: 5'-Cy5
[2] = test system: Sox2KE HMG/Oct4POU Sox2 K95E (Mus musculus); conditions: purified recombinant protein; label: 5'-Cy5
[3] = test system: Sox2alpha17 HMG/Oct4POU Sox2 8 helix-3 residues replaced by Sox17 counterparts (mutagenic oligo SEQ 10) (Mus musculus); conditions: purified recombinant protein, label: 5'-Cy5
[4] = test system: Sox2HMG1/Oct4POU (Mus musculus); conditions: purified recombinant protein; label: 5'-Cy5; variant of canonical sox/oct (0)
[5] = test system: Sox2HMGs (core HMG)/Oct4POU (Mus musculus); conditions: purified recombinant protein; label: 5'-Cy5; variant of Nanog canonical
[6] = test system: Sox7HMG/Oct4POU (Mus musculus); conditions: purified recombinant protein; label: 5'-Cy5

Chains of the proteins cited; added tags and fusions are not shown. Lines headed by an entry give the natural chain unless they say otherwise; changes in a name come on top. Chains listed by the source or under a name are the forms on record and can include a tag or linker.
Sox17HMG/Oct4POU (Mus musculus), one chain, as listed by the source, chain 2 of 2: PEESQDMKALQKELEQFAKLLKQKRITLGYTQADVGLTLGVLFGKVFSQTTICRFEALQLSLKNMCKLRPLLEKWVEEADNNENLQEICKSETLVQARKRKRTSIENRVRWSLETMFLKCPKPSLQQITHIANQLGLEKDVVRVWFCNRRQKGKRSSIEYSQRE
Sox17HMG/Oct4POU (Mus musculus), one chain, as listed by the source, chain 1 of 2: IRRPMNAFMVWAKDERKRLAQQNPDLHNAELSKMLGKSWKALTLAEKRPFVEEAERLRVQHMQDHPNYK
Sox2HMG1/Oct4POU (Mus musculus), one chain, as listed by the source, chain 1 of 2: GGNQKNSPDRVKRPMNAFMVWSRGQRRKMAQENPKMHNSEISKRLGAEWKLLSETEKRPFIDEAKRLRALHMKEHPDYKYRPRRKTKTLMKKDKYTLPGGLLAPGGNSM
Sox7HMG/Oct4POU (Mus musculus), one chain, as listed by the source, chain 1 of 2: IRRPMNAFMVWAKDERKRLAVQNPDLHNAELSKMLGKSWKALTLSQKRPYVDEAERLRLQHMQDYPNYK

Question: Which results are given for “CATGGACATTGTAATGCAAAAGAAGCTG (double strand) [Nanog canonical]”?
Answer: binding result [1]: binds more weakly; binding result [2]: binds more weakly; binding result [3]: binds more weakly

Question: Does “CGCGGCATTGTCGGGCATGCAAATCGGCGG (double strand) [spacer 4]” bind [4]?
Answer: binds more weakly

Question: Does “CGCGGCATTGTCGGGCGATGCAAATCGGCG (double strand) [spacer 5]” bind [4]?
Answer: binds more weakly

Question: Does “CGGCATTGTCGCGGGCGGATGCAAATCGGC (double strand) [spacer 8]” bind [4]?
Answer: binds more weakly

Question: Does “CGGCATTGTCGCGGGCGGCATGCAAATCGG (double strand) [spacer 9]” bind [4]?
Answer: binds more weakly

Question: Which results are given for “CTGGACATTGTATGCAAAAGAA (double strand) [Nanog' compressed (-1)]”?
Answer: binding result [5]: no binding; binding result ([3]; variant of Nanog canonical): binds

Question: Does “GCGCGGCATTGTCGGATGCAAATCGGCGGC (double strand) [spacer 2]” bind [4]?
Answer: binds more weakly

Question: Does “GCGCGGCATTGTCGGCATGCAAATCGGCGG (double strand) [spacer 3]” bind [4]?
Answer: binds more weakly

Question: Does “GCGGCATTGTCCGGGCGATGCAAATCGGCG (double strand) [spacer 6]” bind [4]?
Answer: binds more weakly

Question: Does “GCGGCATTGTCCGGGCGGATGCAAATCGGC (double strand) [spacer 7]” bind [4]?
Answer: binds more weakly

Question: Does “GGCATTGTCCGCGGGCGGCATGCAAATCGG (double strand) [spacer 10]” bind [4]?
Answer: binds more weakly

Question: Does “GGCGCGGCATTGTCATGCAAATCGGCGGCG (double strand) [canonical sox/oct (0)]” bind [1]?
Answer: binds more weakly

Question: Does “GGCGCGGCATTGTCATGCAAATCGGCGGCG (double strand) [canonical sox/oct (0)]” bind [6]?
Answer: binds more weakly

Question: Does “GGCGCGGCATTGTCATTTGCATCGGCGGCG (double strand) [convergent]” bind [4]?
Answer: binds more weakly

Question: Does “GGCGCGGCATTGTCGATGCAAATCGGCGGC (double strand) [spacer 1]” bind [4]?
Answer: binds more weakly

Question: Does “GGCGCGGGACAATGATGCAAATCGGCGGCG (double strand) [divergent]” bind [4]?
Answer: binds more weakly

Reference: patent publication US20120220029
